{"sequences": {"note": "Amino acid sequences for entries named in this document (tags omitted).", "UniProt P50406, whole entry": "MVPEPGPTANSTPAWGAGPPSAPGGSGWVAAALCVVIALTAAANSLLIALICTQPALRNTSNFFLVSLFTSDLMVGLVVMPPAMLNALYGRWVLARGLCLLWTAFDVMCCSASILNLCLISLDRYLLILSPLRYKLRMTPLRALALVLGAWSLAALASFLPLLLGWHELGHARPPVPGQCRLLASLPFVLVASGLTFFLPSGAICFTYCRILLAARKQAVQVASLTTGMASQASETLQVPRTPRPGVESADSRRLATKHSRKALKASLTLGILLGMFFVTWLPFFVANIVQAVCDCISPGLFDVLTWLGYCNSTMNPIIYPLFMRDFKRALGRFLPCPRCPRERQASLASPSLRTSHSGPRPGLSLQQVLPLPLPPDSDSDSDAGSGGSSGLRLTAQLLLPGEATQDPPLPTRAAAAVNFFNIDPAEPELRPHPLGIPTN"}, "source": "patent US20080275058A1", "about": "“N-Substituted-1H-Quinoline-2,4-Diones, Preparation Method Thereof, And Pharmaceutical Composition Containing The Same” (KOREA RESEARCH INSTITUTE OF CHEMICAL TECHNOLOGY, priority 2005, published 2008)", "origin": "cited, not measured here", "biological_target": "5-HT6 receptors (Homo sapiens, UniProt P50406)", "details": "background literature, antipsychotics; cited from earlier work", "note": "At least one compound was matched to its structure with a doubt left.", "data": [{"compound": "O=c1[nH]c2ccccc2n1C1CCN(CCCC(c2ccc(F)cc2)c2ccc(F)cc2)CC1", "note": "[pimozide]", "values": [{"measurement": "affinity at 5-HT6 receptors, in words", "value": "bind with high affinity"}]}]}
